# Results: the supplement of paper PMC12823440, “Inhibitors supercharge kinase turnover through native proteolytic circuits” (Nature, 2025)
# By UniProt entry, the sequences of proteins in these tests, tags left out. Where a name states a change or a piece, a line headed by the entry shows the natural chain unless it says otherwise.
# UniProt P29597: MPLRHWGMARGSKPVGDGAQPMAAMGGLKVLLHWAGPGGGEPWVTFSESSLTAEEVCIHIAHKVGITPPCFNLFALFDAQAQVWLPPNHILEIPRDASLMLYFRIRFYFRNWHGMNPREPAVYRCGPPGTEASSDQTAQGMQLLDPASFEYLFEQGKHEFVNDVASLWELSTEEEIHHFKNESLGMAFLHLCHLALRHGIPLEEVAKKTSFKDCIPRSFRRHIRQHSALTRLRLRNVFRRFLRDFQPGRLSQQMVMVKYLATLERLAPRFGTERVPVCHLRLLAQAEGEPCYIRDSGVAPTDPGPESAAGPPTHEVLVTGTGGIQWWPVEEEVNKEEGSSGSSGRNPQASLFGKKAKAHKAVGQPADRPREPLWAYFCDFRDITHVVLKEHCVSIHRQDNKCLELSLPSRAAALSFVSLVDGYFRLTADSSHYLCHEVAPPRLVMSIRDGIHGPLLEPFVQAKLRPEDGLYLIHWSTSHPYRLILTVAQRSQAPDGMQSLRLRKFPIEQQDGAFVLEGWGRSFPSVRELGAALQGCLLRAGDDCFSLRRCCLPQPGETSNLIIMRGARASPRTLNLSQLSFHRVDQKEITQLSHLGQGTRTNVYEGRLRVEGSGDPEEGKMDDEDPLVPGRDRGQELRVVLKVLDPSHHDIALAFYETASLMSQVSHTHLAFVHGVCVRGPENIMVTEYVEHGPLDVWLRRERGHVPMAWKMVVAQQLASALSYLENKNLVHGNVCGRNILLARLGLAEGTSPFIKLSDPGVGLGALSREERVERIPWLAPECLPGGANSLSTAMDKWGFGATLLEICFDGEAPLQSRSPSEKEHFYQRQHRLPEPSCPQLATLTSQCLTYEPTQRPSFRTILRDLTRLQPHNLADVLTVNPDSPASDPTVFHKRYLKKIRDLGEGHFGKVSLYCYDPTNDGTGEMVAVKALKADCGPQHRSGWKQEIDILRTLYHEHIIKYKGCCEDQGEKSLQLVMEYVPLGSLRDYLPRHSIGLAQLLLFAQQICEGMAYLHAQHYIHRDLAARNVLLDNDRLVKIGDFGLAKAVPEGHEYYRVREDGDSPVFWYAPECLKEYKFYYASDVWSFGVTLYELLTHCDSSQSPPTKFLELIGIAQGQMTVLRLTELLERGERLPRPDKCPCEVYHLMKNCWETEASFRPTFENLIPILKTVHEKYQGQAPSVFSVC
# UniProt Q6PHR2: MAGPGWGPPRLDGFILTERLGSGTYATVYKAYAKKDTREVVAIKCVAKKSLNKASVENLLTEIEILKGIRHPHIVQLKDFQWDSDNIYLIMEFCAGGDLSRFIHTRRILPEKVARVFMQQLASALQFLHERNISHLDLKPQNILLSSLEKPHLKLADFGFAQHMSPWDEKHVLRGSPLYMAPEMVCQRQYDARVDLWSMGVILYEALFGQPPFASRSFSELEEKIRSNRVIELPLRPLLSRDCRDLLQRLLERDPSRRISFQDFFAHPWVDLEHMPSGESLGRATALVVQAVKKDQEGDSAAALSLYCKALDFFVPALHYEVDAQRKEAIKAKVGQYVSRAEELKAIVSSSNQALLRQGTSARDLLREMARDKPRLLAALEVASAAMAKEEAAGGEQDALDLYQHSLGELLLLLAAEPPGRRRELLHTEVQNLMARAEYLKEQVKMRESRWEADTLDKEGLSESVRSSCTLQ
# UniProt P07947, whole entry, looked up: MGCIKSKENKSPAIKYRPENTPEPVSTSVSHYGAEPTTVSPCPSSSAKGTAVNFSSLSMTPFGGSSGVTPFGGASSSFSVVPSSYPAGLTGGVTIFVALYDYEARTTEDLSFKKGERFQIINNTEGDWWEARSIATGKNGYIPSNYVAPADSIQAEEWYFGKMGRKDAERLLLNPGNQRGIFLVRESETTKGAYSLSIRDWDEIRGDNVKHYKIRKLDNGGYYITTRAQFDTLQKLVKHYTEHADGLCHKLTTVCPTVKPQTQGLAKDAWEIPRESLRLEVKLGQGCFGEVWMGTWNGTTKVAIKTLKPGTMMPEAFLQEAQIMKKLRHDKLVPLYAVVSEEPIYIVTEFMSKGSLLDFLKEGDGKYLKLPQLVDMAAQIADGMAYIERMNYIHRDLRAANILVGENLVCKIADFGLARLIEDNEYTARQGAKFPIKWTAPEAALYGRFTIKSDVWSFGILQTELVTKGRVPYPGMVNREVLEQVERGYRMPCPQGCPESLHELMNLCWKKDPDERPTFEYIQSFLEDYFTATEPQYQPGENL
# UniProt P43403: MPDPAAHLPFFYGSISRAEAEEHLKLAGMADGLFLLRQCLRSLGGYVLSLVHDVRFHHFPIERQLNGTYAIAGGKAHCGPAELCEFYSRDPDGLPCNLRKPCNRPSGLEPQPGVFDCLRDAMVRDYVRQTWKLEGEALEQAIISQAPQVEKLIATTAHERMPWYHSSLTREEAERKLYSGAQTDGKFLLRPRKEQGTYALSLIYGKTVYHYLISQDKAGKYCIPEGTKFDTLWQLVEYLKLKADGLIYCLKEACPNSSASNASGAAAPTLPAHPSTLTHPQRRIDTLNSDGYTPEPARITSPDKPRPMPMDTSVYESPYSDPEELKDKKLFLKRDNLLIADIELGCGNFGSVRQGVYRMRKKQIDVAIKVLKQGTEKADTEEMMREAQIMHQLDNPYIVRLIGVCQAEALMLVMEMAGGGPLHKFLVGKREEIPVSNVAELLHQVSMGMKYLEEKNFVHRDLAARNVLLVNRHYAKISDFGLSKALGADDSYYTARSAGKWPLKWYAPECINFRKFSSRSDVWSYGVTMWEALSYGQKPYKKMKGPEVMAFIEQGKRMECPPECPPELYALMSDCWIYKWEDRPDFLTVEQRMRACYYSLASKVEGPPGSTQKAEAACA
# UniProt P00519, whole entry: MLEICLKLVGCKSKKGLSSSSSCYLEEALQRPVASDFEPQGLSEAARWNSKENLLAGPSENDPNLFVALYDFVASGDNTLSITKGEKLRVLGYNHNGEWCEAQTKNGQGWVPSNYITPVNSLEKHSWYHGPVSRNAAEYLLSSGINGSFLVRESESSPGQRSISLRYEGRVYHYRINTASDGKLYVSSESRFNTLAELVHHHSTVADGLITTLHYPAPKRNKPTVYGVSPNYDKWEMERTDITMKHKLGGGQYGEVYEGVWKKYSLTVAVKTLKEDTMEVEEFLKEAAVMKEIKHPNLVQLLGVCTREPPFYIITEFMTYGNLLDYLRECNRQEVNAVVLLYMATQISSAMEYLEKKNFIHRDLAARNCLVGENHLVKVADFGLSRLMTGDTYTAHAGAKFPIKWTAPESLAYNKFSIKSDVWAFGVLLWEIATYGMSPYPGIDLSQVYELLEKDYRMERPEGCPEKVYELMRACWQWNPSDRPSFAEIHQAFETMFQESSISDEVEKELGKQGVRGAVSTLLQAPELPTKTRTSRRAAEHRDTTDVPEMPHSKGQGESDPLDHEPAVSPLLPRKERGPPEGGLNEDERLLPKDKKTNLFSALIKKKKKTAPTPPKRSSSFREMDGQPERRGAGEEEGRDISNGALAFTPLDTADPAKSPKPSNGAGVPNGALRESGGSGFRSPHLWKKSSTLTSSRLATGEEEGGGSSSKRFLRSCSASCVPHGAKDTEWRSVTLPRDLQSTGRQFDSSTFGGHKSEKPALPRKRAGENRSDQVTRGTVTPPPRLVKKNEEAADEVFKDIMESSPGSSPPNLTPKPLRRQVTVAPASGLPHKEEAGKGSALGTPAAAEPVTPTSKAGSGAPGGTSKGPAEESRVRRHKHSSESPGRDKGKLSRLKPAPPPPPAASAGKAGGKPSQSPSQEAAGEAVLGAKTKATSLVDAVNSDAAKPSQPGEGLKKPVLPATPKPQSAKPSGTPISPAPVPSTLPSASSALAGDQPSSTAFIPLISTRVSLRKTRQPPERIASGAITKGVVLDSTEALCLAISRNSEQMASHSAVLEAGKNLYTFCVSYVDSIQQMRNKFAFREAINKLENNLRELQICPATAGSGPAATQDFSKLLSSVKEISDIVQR
# UniProt P31749: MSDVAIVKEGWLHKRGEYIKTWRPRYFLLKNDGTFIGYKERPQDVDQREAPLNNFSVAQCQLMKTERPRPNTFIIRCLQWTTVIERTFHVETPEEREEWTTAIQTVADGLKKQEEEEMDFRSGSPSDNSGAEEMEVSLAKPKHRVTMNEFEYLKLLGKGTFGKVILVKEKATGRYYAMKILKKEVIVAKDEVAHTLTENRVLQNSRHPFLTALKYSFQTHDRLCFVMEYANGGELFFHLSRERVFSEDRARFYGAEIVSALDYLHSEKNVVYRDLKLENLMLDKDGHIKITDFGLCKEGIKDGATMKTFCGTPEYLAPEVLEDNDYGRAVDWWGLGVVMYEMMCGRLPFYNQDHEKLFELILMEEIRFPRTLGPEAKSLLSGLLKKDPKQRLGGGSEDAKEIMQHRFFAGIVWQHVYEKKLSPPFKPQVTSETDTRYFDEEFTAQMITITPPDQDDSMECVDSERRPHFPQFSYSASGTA
# UniProt O14965: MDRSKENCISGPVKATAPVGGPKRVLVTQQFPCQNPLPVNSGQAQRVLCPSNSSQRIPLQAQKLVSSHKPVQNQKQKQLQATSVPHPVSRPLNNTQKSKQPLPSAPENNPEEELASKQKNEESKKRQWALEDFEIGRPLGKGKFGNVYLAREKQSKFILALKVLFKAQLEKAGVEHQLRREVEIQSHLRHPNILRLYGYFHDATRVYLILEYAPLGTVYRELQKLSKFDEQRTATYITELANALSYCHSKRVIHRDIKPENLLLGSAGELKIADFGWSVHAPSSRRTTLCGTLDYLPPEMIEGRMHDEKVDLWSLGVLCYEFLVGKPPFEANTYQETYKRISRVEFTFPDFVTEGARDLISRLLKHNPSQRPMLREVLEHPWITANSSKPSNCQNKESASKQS
# UniProt Q9UQB9: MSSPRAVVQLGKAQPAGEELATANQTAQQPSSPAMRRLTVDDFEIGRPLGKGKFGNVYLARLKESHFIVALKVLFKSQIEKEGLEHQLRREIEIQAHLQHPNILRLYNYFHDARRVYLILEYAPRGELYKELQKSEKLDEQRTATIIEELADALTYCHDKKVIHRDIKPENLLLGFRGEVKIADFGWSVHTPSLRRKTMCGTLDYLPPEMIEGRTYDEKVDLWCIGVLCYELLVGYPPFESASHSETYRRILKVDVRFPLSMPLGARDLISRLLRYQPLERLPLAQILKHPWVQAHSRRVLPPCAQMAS
# UniProt P51451: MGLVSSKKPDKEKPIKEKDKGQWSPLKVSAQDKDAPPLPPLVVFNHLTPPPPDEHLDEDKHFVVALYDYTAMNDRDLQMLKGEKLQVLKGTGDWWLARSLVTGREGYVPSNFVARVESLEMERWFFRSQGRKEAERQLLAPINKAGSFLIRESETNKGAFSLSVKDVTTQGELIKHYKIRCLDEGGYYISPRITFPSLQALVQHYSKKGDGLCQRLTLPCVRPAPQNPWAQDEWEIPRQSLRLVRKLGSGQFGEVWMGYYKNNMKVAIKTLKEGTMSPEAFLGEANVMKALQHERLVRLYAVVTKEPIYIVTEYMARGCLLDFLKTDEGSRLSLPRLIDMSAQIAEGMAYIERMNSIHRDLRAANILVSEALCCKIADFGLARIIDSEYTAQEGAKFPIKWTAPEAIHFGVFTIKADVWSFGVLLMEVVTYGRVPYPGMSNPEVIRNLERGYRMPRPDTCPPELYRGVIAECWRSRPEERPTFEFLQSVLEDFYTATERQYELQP
# UniProt P15056, whole entry, looked up: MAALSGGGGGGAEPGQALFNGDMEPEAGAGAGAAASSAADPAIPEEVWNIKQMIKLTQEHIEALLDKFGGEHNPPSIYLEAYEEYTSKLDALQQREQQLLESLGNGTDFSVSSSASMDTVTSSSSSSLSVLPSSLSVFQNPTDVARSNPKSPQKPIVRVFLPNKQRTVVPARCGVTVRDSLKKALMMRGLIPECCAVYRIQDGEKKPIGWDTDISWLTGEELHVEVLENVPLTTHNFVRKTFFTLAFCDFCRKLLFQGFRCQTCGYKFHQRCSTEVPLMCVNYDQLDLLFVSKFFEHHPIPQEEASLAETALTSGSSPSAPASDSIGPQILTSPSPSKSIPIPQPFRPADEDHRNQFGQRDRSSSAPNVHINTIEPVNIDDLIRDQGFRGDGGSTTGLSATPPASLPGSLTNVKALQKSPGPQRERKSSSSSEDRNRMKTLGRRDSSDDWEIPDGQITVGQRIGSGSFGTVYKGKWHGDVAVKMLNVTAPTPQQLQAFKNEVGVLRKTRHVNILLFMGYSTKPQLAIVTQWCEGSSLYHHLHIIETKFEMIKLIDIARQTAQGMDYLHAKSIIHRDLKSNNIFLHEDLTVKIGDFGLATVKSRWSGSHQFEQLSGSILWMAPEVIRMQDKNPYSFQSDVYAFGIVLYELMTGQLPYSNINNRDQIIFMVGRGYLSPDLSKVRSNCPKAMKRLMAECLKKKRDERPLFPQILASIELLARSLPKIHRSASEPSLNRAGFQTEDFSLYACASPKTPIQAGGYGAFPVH
# Where a name gives a salt, the structure may show the parent alone. This is one part of the list. Hit calls seldom repeat between salt and free forms of one compound.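 Kinases were expressed as nanoluciferase fusions in K562 cells and luminescence was read every 4 h between 2 and 18 h as percent of control, DMSO set to 100% and a positive control to 0%. A time point counts as decreased when the signal drops significantly (2 sigma). The hit call is the authors' own, does not follow from the count of time points alone, and its rule is not shown.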
# How the values were obtained:
# Conditions in all cases: K562; 2-18 h
# STK38 = STK38 (UniProt Q15208); assay: kinase-Nluc reporter destabilization hit call (1 = scored as downregulated) (binary); higher = compound decreases kinase abundance
# SYK = SYK (UniProt P43405); assay: as above
# TEC = TEC (UniProt P42680); assay: as above
# TYK2 = TYK2 (UniProt P29597); assay: as above
# ULK3 = ULK3 (UniProt Q6PHR2); assay: as above
# YES1 = YES1 (UniProt P07947); assay: as above
# ZAK = ZAK (UniProt Q9NYL2); assay: as above
# ZAP70 = ZAP70 (UniProt P43403); assay: as above
# ABL1 = ABL1 (UniProt P00519); assay: number of time points (of 5) at which kinase-Nluc abundance scored as decreased, DMSO-normalised (count); higher = more persistent destabilization
# AKT1 = AKT1 (UniProt P31749); assay: as above
# ALK = ALK (UniProt Q9UM73); assay: as above
# ARAF = ARAF (UniProt P10398); assay: as above
# AURKA = AURKA (UniProt O14965); assay: as above
# AURKB = AURKB (UniProt Q96GD4); assay: as above
# AURKC = AURKC (UniProt Q9UQB9); assay: as above
# BLK = BLK (UniProt P51451); assay: as above
# BMX = BMX (UniProt P51813); assay: as above
# BRAF = BRAF (UniProt P15056); assay: as above
# BRAF_V600E = assay: as above
# BTK = BTK (UniProt Q06187); assay: as above
SMILES,kinase-Nluc reporter destabilization hit call (STK38),kinase-Nluc reporter destabilization hit call (SYK),kinase-Nluc reporter destabilization hit call (TEC),kinase-Nluc reporter destabilization hit call (TYK2),kinase-Nluc reporter destabilization hit call (ULK3),kinase-Nluc reporter destabilization hit call (YES1),kinase-Nluc reporter destabilization hit call (ZAK),kinase-Nluc reporter destabilization hit call (ZAP70),number of time points (ABL1),number of time points (AKT1),number of time points (ALK),number of time points (ARAF),number of time points (AURKA),number of time points (AURKB),number of time points (AURKC),number of time points (BLK),number of time points (BMX),number of time points (BRAF),number of time points (BRAF_V600E),number of time points (BTK)
CCCCNc1ncc2c(-c3ccc(CN4CCN(C)CC4)cc3)cn([C@H]3CC[C@H](O)CC3)c2n1 [UNC2025 (hydrochloride)] (2.5 µM),inactive: 0,inactive: 0,inactive: 0,inactive: 0,inactive: 0,inactive: 0,inactive: 0,inactive: 0,2,0,1,0,0,0,0,0,1,0,2,0
N#Cc1c[nH]c2ccc(-c3ccc(-c4c(O)cccc4O)cc3)cc12 (10 µM),inactive: 0,inactive: 0,inactive: 0,inactive: 0,inactive: 0,inactive: 0,inactive: 0,inactive: 0,0,0,0,0,0,0,0,0,0,0,0,0
Clc1ccc(Nc2cccc(-c3cn[nH]c3)c2)cc1 (10 µM),inactive: 0,inactive: 0,inactive: 0,inactive: 0,inactive: 0,inactive: 0,inactive: 0,inactive: 0,0,0,0,0,0,0,0,0,0,0,0,0
O=C(c1ccc(NS(=O)(=O)c2cccc3cccnc23)cc1)N1CCN(CC2CC2)CC1 [Mitapivat] (10 µM),inactive: 0,inactive: 0,inactive: 0,inactive: 0,inactive: 0,inactive: 0,inactive: 0,inactive: 0,0,0,0,0,0,0,0,0,0,0,0,0
OCCC#Cc1nc(-c2ccc(F)cc2)c(-c2ccncc2)n1CCCc1ccccc1 (2.5 µM),inactive: 0,inactive: 0,inactive: 0,inactive: 0,inactive: 0,inactive: 0,inactive: 0,inactive: 0,0,0,0,0,0,0,0,0,0,0,0,0
CN(c1ccc(C(F)(F)F)cc1)S(=O)(=O)c1ccc(C(=O)Nc2nc(-c3ccccn3)cs2)cc1 (2.5 µM),inactive: 0,inactive: 0,inactive: 0,inactive: 0,inactive: 0,inactive: 0,inactive: 0,inactive: 0,0,0,0,0,0,0,0,0,1,0,0,0
CC(C)n1nc(C#Cc2ccccc2)c2c(N)ncnc21 (10 µM),inactive: 0,inactive: 0,inactive: 0,inactive: 0,inactive: 0,inactive: 0,inactive: 0,inactive: 0,2,0,0,0,1,0,0,0,0,0,3,0
COc1ccc(S(=O)(=O)N(CCO)c2ccccc2CN(C)CC=Cc2ccc(Cl)cc2)cc1 (2.5 µM),inactive: 0,inactive: 0,inactive: 0,inactive: 0,inactive: 0,inactive: 0,inactive: 0,inactive: 0,0,0,0,0,0,0,0,0,0,0,0,0
Cc1ccc(Nc2c(C(N)=O)cnc3cc(-c4ccncc4)ccc23)cc1C [cFMS Receptor Inhibitor II] (10 µM),inactive: 0,inactive: 0,inactive: 0,inactive: 0,inactive: 0,inactive: 0,inactive: 0,inactive: 0,0,0,0,0,0,0,0,0,0,0,0,0
C=CC(=O)Nc1cccc(Oc2nc(Nc3ccc(N4CCN(C)CC4)cc3)nc3ccsc23)c1 [Olmutinib] (2.5 µM),inactive: 0,inactive: 0,inactive: 0,inactive: 0,inactive: 0,inactive: 0,inactive: 0,inactive: 0,0,0,0,0,0,0,0,0,0,0,0,0
CC1=C(C(=O)Nc2ccc3[nH]ncc3c2)C(c2ccc(F)c(C(=O)NCc3ccccn3)c2)NC(=O)N1 (stereo not given) (10 µM),inactive: 0,inactive: 0,inactive: 0,inactive: 0,inactive: 0,inactive: 0,inactive: 0,inactive: 0,0,0,0,0,0,0,0,0,0,0,0,0
